Reference: US20180214442A1, “METHODS FOR ATTENUATING OR PREVENTING MU(μ)-OPIOID RECEPTOR MEDIATED TOLERANCE AND OPIOID-INDUCED […]” (The Board of Trustees of the Leland Stanford Junior …, priority 2017, published 2018)
Like-named read-outs stand apart in the source and are kept apart here.

System: spinal microglia

CN1CC[C@]23c4c5ccc(O)c4O[C@H]2[C@@H](O)C=C[C@H]3[C@H]1C5.O=S(=O)(O)O [morphine, Morphine sulfate]
microglial activation (CD11b density) (global MOR KO mice, twice daily escalating 10 to 40 mg/kg schedule): considerable microglial activation | microglial activation (CD11b density) (wild-type mice, chronic morphine, fixed 10 mg/kg or escalating 10 to 40 mg/kg): robust microglial activation
